{
  "source": "patent US9624161B2",
  "about": "(priority 2009, dated 2017)",
  "tested_on": "men with metastatic castration resistant prostate cancer (mCRPC)",
  "assay": "Estradiol, ethynyl estradiol and estrogen agonists as secondary hormone therapy for mCRPC (Study 6 protocol, Example 28)",
  "assay_type": "in vivo, human",
  "settings": "125, 250 or 500 mg daily oral",
  "source_text": "This study also assesses the VTE risk of lower doses of estradiol, ethynyl estradiol, steroidal estrogen agonists and nonsteroidal estrogen agonist. Secondary endpoints include serum free testosterone levels, adrenal gland androgen precursor production (DHEA and DHEAS levels), progression free survival, and skeletal related events (SRE).",
  "note": "At least one compound was matched to its structure with a doubt left.",
  "data": [
    {"smiles": "C[C@]12CC[C@@H]3c4ccc(O)cc4CC[C@H]3[C@@H]1CC[C@@H]2O", "note": "[estradiol]", "values": [
      {"measurement": "Effect on serum free testosterone", "value": "reduce serum free testosterone"}
    ]}
  ]
}
